# Test results: the supplement of paper PMC7661543
# ± gives the standard deviation of the averaged measurements. Differences between knockout arms are mostly noise.
# Tested on: HCC-38
# Experiment: relative cell number vs DMSO control (72 h) (% of DMSO); higher = less growth inhibition (more cells)
# Method: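 QMAP-Seq: a pool of 5 breast cancer cell lines (ZR-75-1, SKBR3, HCC-38, MDA-MB-231, BT-20), each carrying 12 doxycycline-inducible Cas9 sgRNA perturbations (11 knockouts plus non-targeting sgNT), was treated with compounds for 72 h at four 10-fold doses (10 nM-10 uM or 1 nM-1 uM range). Barcodes were amplified and sequenced, and cell number was interpolated from 293T spike-in standard curves. The result is expressed as % of the median of DMSO wells. Two biological replicates.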
# [1] = sgRNA knockout: sgATF3, 1000 nM
# [2] = sgRNA knockout: sgATF3, 10000 nM
# [3] = sgRNA knockout: sgATF4, 1000 nM
# [4] = sgRNA knockout: sgATF4, 10000 nM
# [5] = sgRNA knockout: sgATF6, 1000 nM
# [6] = sgRNA knockout: sgATF6, 10000 nM
# [7] = sgRNA knockout: sgATG7, 1000 nM
# [8] = sgRNA knockout: sgATG7, 10000 nM
# [9] = sgRNA knockout: sgERN1, 1000 nM
# [10] = sgRNA knockout: sgERN1, 10000 nM
# [11] = sgRNA knockout: sgHSF1, 1000 nM
# [12] = sgRNA knockout: sgHSF1, 10000 nM
# [13] = sgRNA knockout: sgHSF2, 1000 nM
# [14] = sgRNA knockout: sgHSF2, 10000 nM
# [15] = sgRNA knockout: sgKEAP1, 100 nM
# [16] = sgRNA knockout: sgKEAP1, 1000 nM
# [17] = sgRNA knockout: sgKEAP1, 10000 nM
# [18] = sgRNA knockout: sgNFE2L2, 10 nM
# [19] = sgRNA knockout: sgNFE2L2, 100 nM
# [20] = sgRNA knockout: sgNFE2L2, 1000 nM
# [21] = sgRNA knockout: sgNFE2L2, 10000 nM
# [22] = sgRNA knockout: sgSLC35F2, 10 nM
# [23] = sgRNA knockout: sgSLC35F2, 100 nM
# [24] = sgRNA knockout: sgSLC35F2, 1000 nM
# [25] = sgRNA knockout: sgSLC35F2, 10000 nM
# [26] = sgRNA knockout: sgXBP1, 1000 nM
# [27] = sgRNA knockout: sgXBP1, 10000 nM
smiles,measurement,setting,value
Cc1cnc(-c2cnc(NCCNc3ccc(C#N)cn3)nc2-c2ccc(Cl)cc2Cl)[nH]1,relative cell number,"sgRNA knockout: sgATF3, 10 nM",96.1 ± 16
same,relative cell number,"sgRNA knockout: sgATF3, 100 nM",92.1 ± 4.5
same,relative cell number,[1],120.9 ± 1
same,relative cell number,[2],129 ± 2
same,relative cell number,"sgRNA knockout: sgATF4, 10 nM",90.7 ± 13
same,relative cell number,"sgRNA knockout: sgATF4, 100 nM",82.44 ± 0.069
same,relative cell number,[3],113 ± 11
same,relative cell number,[4],127 ± 8.9
same,relative cell number,"sgRNA knockout: sgATF6, 10 nM",106 ± 20
same,relative cell number,"sgRNA knockout: sgATF6, 100 nM",107 ± 14
same,relative cell number,[5],118 ± 12
same,relative cell number,[6],146 ± 11
same,relative cell number,"sgRNA knockout: sgATG7, 10 nM",96.2 ± 14
same,relative cell number,"sgRNA knockout: sgATG7, 100 nM",94.2 ± 4.7
same,relative cell number,[7],105 ± 3.7
same,relative cell number,[8],125.5 ± 0.68
same,relative cell number,"sgRNA knockout: sgERN1, 10 nM",94.8 ± 11
same,relative cell number,"sgRNA knockout: sgERN1, 100 nM",102 ± 8.6
same,relative cell number,[9],97.5 ± 11
same,relative cell number,[10],136 ± 12
same,relative cell number,"sgRNA knockout: sgHSF1, 10 nM",95.1 ± 8.8
same,relative cell number,"sgRNA knockout: sgHSF1, 100 nM",110.3 ± 1.1
same,relative cell number,[11],94.7 ± 8.4
same,relative cell number,[12],112 ± 1.2
same,relative cell number,"sgRNA knockout: sgHSF2, 10 nM",95.4 ± 7.5
same,relative cell number,"sgRNA knockout: sgHSF2, 100 nM",97.6 ± 2.9
same,relative cell number,[13],102 ± 8.6
same,relative cell number,[14],123 ± 4.6
same,relative cell number,"sgRNA knockout: sgKEAP1, 10 nM",94.7 ± 6.2
same,relative cell number,[15],100.41 ± 0.017
same,relative cell number,[16],98.64 ± 0.96
same,relative cell number,[17],124 ± 8.8
same,relative cell number,[18],94.1 ± 27
same,relative cell number,[19],87.4 ± 2.7
same,relative cell number,[20],116.2 ± 0.96
same,relative cell number,[21],134 ± 12
same,relative cell number,[22],91.8 ± 16
same,relative cell number,[23],95 ± 8.7
same,relative cell number,[24],98.3 ± 3.7
same,relative cell number,[25],119 ± 3.9
same,relative cell number,"sgRNA knockout: sgXBP1, 10 nM",92.9 ± 18
same,relative cell number,"sgRNA knockout: sgXBP1, 100 nM",94.18 ± 0.89
same,relative cell number,[26],113 ± 10
same,relative cell number,[27],129.4 ± 0.16
Cc1ccccc1-n1c(Cn2cnc3c(N)ncnc32)nc2cccc(C)c2c1=O,relative cell number,"sgRNA knockout: sgATF3, 10 nM",109 ± 29
same,relative cell number,"sgRNA knockout: sgATF3, 100 nM",120 ± 23
same,relative cell number,[1],109 ± 17
same,relative cell number,[2],95.45 ± 0.76
same,relative cell number,"sgRNA knockout: sgATF4, 10 nM",88.1 ± 26
same,relative cell number,"sgRNA knockout: sgATF4, 100 nM",106 ± 26
same,relative cell number,[3],105 ± 17
same,relative cell number,[4],92 ± 2.3
same,relative cell number,"sgRNA knockout: sgATF6, 10 nM",111 ± 23
same,relative cell number,"sgRNA knockout: sgATF6, 100 nM",130 ± 23
same,relative cell number,[5],102 ± 26
same,relative cell number,[6],107 ± 11
same,relative cell number,"sgRNA knockout: sgATG7, 10 nM",105 ± 24
same,relative cell number,"sgRNA knockout: sgATG7, 100 nM",111 ± 24
same,relative cell number,[7],107 ± 12
same,relative cell number,[8],98.2 ± 4.2
same,relative cell number,"sgRNA knockout: sgERN1, 10 nM",102 ± 32
same,relative cell number,"sgRNA knockout: sgERN1, 100 nM",119 ± 37
same,relative cell number,[9],111 ± 19
same,relative cell number,[10],95.7 ± 3.8
same,relative cell number,"sgRNA knockout: sgHSF1, 10 nM",130 ± 26
same,relative cell number,"sgRNA knockout: sgHSF1, 100 nM",159 ± 40
same,relative cell number,[11],116 ± 37
same,relative cell number,[12],115 ± 1.6
same,relative cell number,"sgRNA knockout: sgHSF2, 10 nM",117 ± 49
same,relative cell number,"sgRNA knockout: sgHSF2, 100 nM",131 ± 41
same,relative cell number,[13],118 ± 28
same,relative cell number,[14],107 ± 1.7
same,relative cell number,"sgRNA knockout: sgKEAP1, 10 nM",132 ± 36
same,relative cell number,[15],159 ± 40
same,relative cell number,[16],144 ± 56
same,relative cell number,[17],130 ± 4.7
same,relative cell number,[18],92.2 ± 30
same,relative cell number,[19],106 ± 23
same,relative cell number,[20],95.2 ± 23
same,relative cell number,[21],89.4 ± 4.6
same,relative cell number,[22],98.1 ± 31
same,relative cell number,[23],111 ± 19
same,relative cell number,[24],103 ± 16
same,relative cell number,[25],97 ± 8.3
same,relative cell number,"sgRNA knockout: sgXBP1, 10 nM",100 ± 32
same,relative cell number,"sgRNA knockout: sgXBP1, 100 nM",108 ± 27
same,relative cell number,[26],105 ± 29
same,relative cell number,[27],97.2 ± 9.9

# 2 entries picked at random from the list so far, as already listed:
smiles,measurement,setting,value
Cc1cnc(-c2cnc(NCCNc3ccc(C#N)cn3)nc2-c2ccc(Cl)cc2Cl)[nH]1,relative cell number,[1],120.9 ± 1
same,relative cell number,"sgRNA knockout: sgATF6, 10 nM",106 ± 20

# 2 entries from above, reformatted:
smiles | measurement | setting | value
Cc1ccccc1-n1c(Cn2cnc3c(N)ncnc32)nc2cccc(C)c2c1=O | relative cell number | sgRNA knockout: sgATF4, 100 nM | 106 ± 26
same | relative cell number | [13] | 118 ± 28
